# Assay results taken from the supplement of paper PMC8728848.
# Some of the results follow.
# Key:
# Assay in all cases: glycan array binding signal (z-score within array); higher = stronger binding
# Conditions in all cases: glycan notation: IUPAC condensed, linker removed; mutation: D224N
# [1] = molecular target: Gal(b1-4)GlcNAc(b1-2)[Gal(b1-4)GlcNAc(b1-4)]Man(a1-3)[Gal(b1-4)GlcNAc(b1-2)[Gal(b1-4)GlcNAc(b1-6)]Man(a1-6)]Man(b1-4)GlcNAc(b1-4)GlcNAc
# Procedure, shortened: (§1)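 Glycan array binding is given as a within-array Z-score, which can be read as non-binding when negative. The arrays, 3228 of them, came from the Consortium for Functional Glycomics database and were retained only where the protein sequence was available. Z-scores were averaged across arrays of the same protein sequence at different concentrations or buffers and across linkers.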
# [2] = molecular target: Gal(b1-4)GlcNAc(b1-2)[Gal(b1-4)GlcNAc(b1-4)]Man(a1-3)[GlcNAc(b1-4)][Gal(b1-4)GlcNAc(b1-2)Man(a1-6)]Man(b1-4)GlcNAc(b1-4)GlcNAc
# Procedure, shortened: as §1
# [3] = molecular target: Gal(b1-4)GlcNAc(b1-2)[Gal(b1-4)GlcNAc(b1-4)]Man(a1-3)[GlcNAc(b1-4)][Gal(b1-4)GlcNAc(b1-2)[Gal(b1-4)GlcNAc(b1-6)]Man(a1-6)]Man(b1-4)GlcNAc(b1-4)GlcNAc
# Procedure, shortened: as §1
# [4] = molecular target: Gal(b1-4)GlcNAc(b1-2)[Gal(b1-4)GlcNAc(b1-6)]Man(a1-6)[Gal(b1-4)GlcNAc(b1-2)Man(a1-3)]Man(b1-4)GlcNAc(b1-4)GlcNAc
# Procedure, shortened: as §1
# [5] = molecular target: Gal(b1-4)GlcNAc(b1-2)[Gal(b1-4)GlcNAc(b1-6)]Man(a1-6)[Gal(b1-4)GlcNAc(b1-2)Man(a1-3)]Man(b1-4)GlcNAc(b1-4)[Fuc(a1-6)]GlcNAc
# Procedure, shortened: as §1
# [6] = molecular target: Gal(b1-4)GlcNAc(b1-2)[Gal(b1-4)GlcNAc(b1-6)]Man(a1-6)[GlcNAc(b1-4)][Gal(b1-4)GlcNAc(b1-2)Man(a1-3)]Man(b1-4)GlcNAc(b1-4)GlcNAc
# Procedure, shortened: as §1
# [7] = molecular target: Gal(b1-4)GlcNAc(b1-2)[Gal(b1-4)GlcNAc(b1-6)]Man(a1-6)[GlcNAc(b1-4)][Gal(b1-4)GlcNAc(b1-2)[Gal(b1-4)GlcNAc(b1-4)]Man(a1-3)]Man(b1-4)GlcNAc(b1-4)[Fuc(a1-6)]GlcNAc
# Procedure, shortened: as §1
# [8] = molecular target: Gal(b1-4)GlcNAc(b1-3)Gal(b1-3)GalNAc
# Procedure, shortened: as §1
# [9] = molecular target: Gal(b1-4)GlcNAc(b1-3)Gal(b1-3)GlcNAc
# Procedure, shortened: as §1
# [10] = molecular target: Gal(b1-4)GlcNAc(b1-3)Gal(b1-4)Glc
# Procedure, shortened: as §1
# [11] = molecular target: Gal(b1-4)GlcNAc(b1-3)Gal(b1-4)GlcNAc
# Procedure, shortened: as §1
# [12] = molecular target: Gal(b1-4)GlcNAc(b1-3)Gal(b1-4)GlcNAc(b1-2)Man(a1-3)[Gal(b1-4)GlcNAc(b1-3)Gal(b1-4)GlcNAc(b1-2)Man(a1-6)]Man(b1-4)GlcNAc(b1-4)GlcNAc
# Procedure, shortened: as §1
# [13] = molecular target: Gal(b1-4)GlcNAc(b1-3)Gal(b1-4)GlcNAc(b1-2)Man(a1-3)[Gal(b1-4)GlcNAc(b1-3)Gal(b1-4)GlcNAc(b1-2)Man(a1-6)]Man(b1-4)GlcNAc(b1-4)[Fuc(a1-6)]GlcNAc
# Procedure, shortened: as §1
# [14] = molecular target: Gal(b1-4)GlcNAc(b1-3)Gal(b1-4)GlcNAc(b1-2)[Gal(b1-4)GlcNAc(b1-3)Gal(b1-4)GlcNAc(b1-6)]Man(a1-6)[Gal(b1-4)GlcNAc(b1-3)Gal(b1-4)GlcNAc(b1-2)Man(a1-3)]Man(b1-4)GlcNAc(b1-4)GlcNAc
# Procedure, shortened: as §1
# [15] = molecular target: Gal(b1-4)GlcNAc(b1-3)Gal(b1-4)GlcNAc(b1-2)[Gal(b1-4)GlcNAc(b1-3)Gal(b1-4)GlcNAc(b1-6)]Man(a1-6)[Gal(b1-4)GlcNAc(b1-3)Gal(b1-4)GlcNAc(b1-2)Man(a1-3)]Man(b1-4)GlcNAc(b1-4)[Fuc(a1-6)]GlcNAc
# Procedure, shortened: as §1
# [16] = molecular target: Gal(b1-4)GlcNAc(b1-3)Gal(b1-4)GlcNAc(b1-3)Gal(b1-4)GlcNAc
# Procedure, shortened: as §1
# [17] = molecular target: Gal(b1-4)GlcNAc(b1-3)Gal(b1-4)GlcNAc(b1-3)Gal(b1-4)GlcNAc(b1-2)Man(a1-3)[Gal(b1-4)GlcNAc(b1-3)Gal(b1-4)GlcNAc(b1-3)Gal(b1-4)GlcNAc(b1-2)Man(a1-6)]Man(b1-4)GlcNAc(b1-4)GlcNAc
# Procedure, shortened: as §1
# [18] = molecular target: Gal(b1-4)GlcNAc(b1-3)Gal(b1-4)GlcNAc(b1-3)Gal(b1-4)GlcNAc(b1-2)Man(a1-3)[Gal(b1-4)GlcNAc(b1-3)Gal(b1-4)GlcNAc(b1-3)Gal(b1-4)GlcNAc(b1-2)Man(a1-6)]Man(b1-4)GlcNAc(b1-4)[Fuc(a1-6)]GlcNAc
# Procedure, shortened: as §1
# [19] = molecular target: Gal(b1-4)GlcNAc(b1-3)Gal(b1-4)GlcNAc(b1-3)Gal(b1-4)GlcNAc(b1-2)[Gal(b1-4)GlcNAc(b1-3)Gal(b1-4)GlcNAc(b1-3)Gal(b1-4)GlcNAc(b1-6)]Man(a1-6)[Gal(b1-4)GlcNAc(b1-3)Gal(b1-4)GlcNAc(b1-3)Gal(b1-4)GlcNAc(b1-2)Man(a1-3)]Man(b1-4)GlcNAc(b1-4)[Fuc(a1-6)]GlcNAc
# Procedure, shortened: as §1
binder,measurement,setting,value
a L Fucosidase (Thermotoga maritima) (protein) MASMKPRYKPDWESLREHTVPKWFDKAKFGIFIHWGIYSVPGWATPTGELGKVPMDAWFFQNPYAEWYENSLRIKESPTWEYHVKTYGENFEYEKFADLFTAEKWDPQEWADLFKKAGAKYVIPTTKHHDGFCLWGTKYTDFNSVKRGPKRDLVGDLAKAVREAGLRFGVYYSGGLDWRFTTEPIRYPEDLSYIRPNTYEYADYAYKQVMELVDLYLPDVLWNNMGWPEKGKEDLKYLFAYYYNKHPEGSVNDRWGVPHWDFKTAEYHVNYPGDLPGYKWEFTRGIGLSFGYNRNEGPEHMLSVEQLVYTLVDVVSKGGNLLLNVGPKGDGTIPDLQKERLLGLGEWLRKYGDAIYGTSVWERCCAKTEDGTEIRFTRKCNRIFVIFLGIPTGEKIVIEDLNLSAGTVRHFLTGERLSFKNVGKNLEITVPKKLLETDSITLVLEAVEE,glycan array binding signal (z-score),[1],-0.489
same,glycan array binding signal (z-score),[2],-0.235
same,glycan array binding signal (z-score),[3],-0.054
same,glycan array binding signal (z-score),[4],-0.36
same,glycan array binding signal (z-score),[5],0.859
same,glycan array binding signal (z-score),[6],-0.343
same,glycan array binding signal (z-score),[7],-0.733
same,glycan array binding signal (z-score),[8],-0.636
same,glycan array binding signal (z-score),[9],-0.489
same,glycan array binding signal (z-score),[10],-0.682
same,glycan array binding signal (z-score),[11],-0.267
same,glycan array binding signal (z-score),[12],0.428
same,glycan array binding signal (z-score),[13],0.376
same,glycan array binding signal (z-score),[14],1.93
same,glycan array binding signal (z-score),[15],0.031
same,glycan array binding signal (z-score),[16],-0.873
same,glycan array binding signal (z-score),[17],0.166
same,glycan array binding signal (z-score),[18],1.78
same,glycan array binding signal (z-score),[19],1.64

# Reprinted from the listing (2 entries):
binder,measurement,setting,value
a L Fucosidase (Thermotoga maritima) (protein) MASMKPRYKPDWESLREHTVPKWFDKAKFGIFIHWGIYSVPGWATPTGELGKVPMDAWFFQNPYAEWYENSLRIKESPTWEYHVKTYGENFEYEKFADLFTAEKWDPQEWADLFKKAGAKYVIPTTKHHDGFCLWGTKYTDFNSVKRGPKRDLVGDLAKAVREAGLRFGVYYSGGLDWRFTTEPIRYPEDLSYIRPNTYEYADYAYKQVMELVDLYLPDVLWNNMGWPEKGKEDLKYLFAYYYNKHPEGSVNDRWGVPHWDFKTAEYHVNYPGDLPGYKWEFTRGIGLSFGYNRNEGPEHMLSVEQLVYTLVDVVSKGGNLLLNVGPKGDGTIPDLQKERLLGLGEWLRKYGDAIYGTSVWERCCAKTEDGTEIRFTRKCNRIFVIFLGIPTGEKIVIEDLNLSAGTVRHFLTGERLSFKNVGKNLEITVPKKLLETDSITLVLEAVEE,glycan array binding signal (z-score),[1],-0.489
same,glycan array binding signal (z-score),[2],-0.235
